US20220098304A1
Residue numbers refer to the chain shown, from its start. Results are given in words; binding and its absence hold for the method and conditions named. Some results given as binding are weak or reduced against the parent protein; the word gives no strength. Values belong to the binder of their own block, whether it stands above or below them.

Chains of the proteins cited; added tags and fusions are not shown. Residues count along the entry.
UniProt Q15116, residues 25-167: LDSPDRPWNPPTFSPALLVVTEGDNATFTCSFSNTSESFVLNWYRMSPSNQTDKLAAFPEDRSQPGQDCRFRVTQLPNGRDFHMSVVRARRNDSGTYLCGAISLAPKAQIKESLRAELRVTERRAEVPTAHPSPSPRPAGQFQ

Biological target: Human PD-1-His protein (Cat. #10377H08H, Sino Biological) (human) (UniProt Q15116)
Assay: SPR (Biacore), Table 16

B1: Hu32a-15.IgG4AA (antibody, V domains shown)
VH: EVQLVQSGAEVKKPGSSVKVSCKASGGTFSDYEIHWVRQAPGQGLEWMGLFDPETGGIVYNQKFKGRVTITADKSTSTAYMELSSLRSEDTAVYYCAREGYNRDWYFDVWGQGTTVTVSS
VL: DIVMTQTPLSLPVTPGEPASISCRSSQSLVHSTGNTYLEWYLQKPGQSPQLLIYKVSNRFSGVPDRFSGSGSGTDFTLKISRVEAEDVGVYYCFQGSHVPYTFGGGTKVEIKR
- binding: binds

B4: Hu32a-29.IgG4AA (antibody, V domains shown)
VH: B1 VH with G27F, I70L, A97T
VL: B1 VL
- binding: binds

The remaining lines, values ahead:

- binding: binds
B2: Hu32a-71.IgG4AA (antibody, V domains shown)
VH: B1 VH with G26D, G27F, S30T, M48I, V68A, I70L, L83F, A97T
VL: B1 VL

- binding: binds
B3: Hu32a-43.IgG4AA (antibody, V domains shown)
VH: B1 VH with G26D, G27F, I70L, A97T
VL: B1 VL

- binding: binds
B5: Hu32a-57.IgG4AA (antibody, V domains shown)
VH: B1 VH with G27F, M48I, V68A, I70L, L83F, A97T
VL: B1 VL
